Experimental data: article PMC10746227
No constants are given. Whether binding was seen depends on the method and setting. Binding seen in cells or lysates may run through a third protein. Some results given as binding are weak or reduced against the parent protein; the word gives no strength.

Protein sequences, listed by entry. Tags and fused reporters are not part of them.
UniProt Q2FKN7: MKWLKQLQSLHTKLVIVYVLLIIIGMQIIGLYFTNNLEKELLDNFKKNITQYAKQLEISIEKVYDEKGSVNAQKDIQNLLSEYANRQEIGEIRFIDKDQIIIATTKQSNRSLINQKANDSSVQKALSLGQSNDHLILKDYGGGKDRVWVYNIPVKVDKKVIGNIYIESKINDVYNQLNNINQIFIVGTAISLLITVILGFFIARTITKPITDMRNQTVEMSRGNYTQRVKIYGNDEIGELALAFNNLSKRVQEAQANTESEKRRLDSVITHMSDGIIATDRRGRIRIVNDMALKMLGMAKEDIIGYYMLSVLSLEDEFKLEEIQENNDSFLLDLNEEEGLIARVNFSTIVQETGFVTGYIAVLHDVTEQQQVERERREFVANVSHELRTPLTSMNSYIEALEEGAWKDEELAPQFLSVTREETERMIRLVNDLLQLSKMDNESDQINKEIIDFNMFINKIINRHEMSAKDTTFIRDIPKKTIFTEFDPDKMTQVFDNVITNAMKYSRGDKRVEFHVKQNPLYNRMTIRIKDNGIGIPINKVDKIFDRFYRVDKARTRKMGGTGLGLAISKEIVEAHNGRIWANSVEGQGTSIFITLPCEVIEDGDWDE
UniProt Q2FKN8: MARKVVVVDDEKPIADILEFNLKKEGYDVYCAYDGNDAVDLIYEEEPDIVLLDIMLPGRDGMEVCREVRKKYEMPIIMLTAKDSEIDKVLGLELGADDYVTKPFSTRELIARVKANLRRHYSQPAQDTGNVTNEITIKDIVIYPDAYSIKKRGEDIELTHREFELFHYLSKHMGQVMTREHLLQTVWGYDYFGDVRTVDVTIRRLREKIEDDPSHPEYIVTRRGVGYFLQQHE

Tests used:
[1] = molecular target: WalK-LgBIT (native WalK) (S. aureus) (UniProt Q2FKN7); assay: split reporter; WalR-SmBIT (pSmBIT) and WalK-LgBIT (pLgBIT) alleles together in living S. aureus NRS384; LB with chloramphenicol, kanamycin and Nano-Glo substrate 1:5,000, 37°C, 96-well plate; OD600nm and light emission (RLU) read every 10 min over 8 h; lag and exponential phase
[2] = molecular target: WalK-LgBIT (native WalK) (S. aureus) (UniProt Q2FKN7); assay: split reporter; same cultures and read-out as a1, in the stationary phase (5 h)

“WalR-SmBIT (native WalR) (from UniProt Q2FKN8 1-233)” was tested, and the binding [1] was “binds” and the binding [2] was “no binding (condition: stationary phase (5 h))”.
